Results reported in article PMC6638986.
These are yes or no findings as the source states them, for the method shown. In cells and extracts the contact can be indirect. These calls come from enrichment with a bait or labelling near it, and not all partners need be listed. For some of these results: A no says only that the protein was not detected with the bait.

By UniProt entry, the sequences of proteins in these tests, tags left out.
UniProt A0A1D8PKC3: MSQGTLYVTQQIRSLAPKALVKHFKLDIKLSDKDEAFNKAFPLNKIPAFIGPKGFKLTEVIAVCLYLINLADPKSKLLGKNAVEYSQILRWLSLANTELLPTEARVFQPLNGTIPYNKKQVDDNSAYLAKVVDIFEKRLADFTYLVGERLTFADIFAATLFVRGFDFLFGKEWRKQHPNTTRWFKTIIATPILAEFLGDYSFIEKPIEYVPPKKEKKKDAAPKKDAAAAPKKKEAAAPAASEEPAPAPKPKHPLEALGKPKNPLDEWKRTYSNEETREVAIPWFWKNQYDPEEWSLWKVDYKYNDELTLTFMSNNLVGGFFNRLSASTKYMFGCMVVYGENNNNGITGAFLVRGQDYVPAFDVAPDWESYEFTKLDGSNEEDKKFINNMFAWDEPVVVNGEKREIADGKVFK
UniProt A0A1D8PN90: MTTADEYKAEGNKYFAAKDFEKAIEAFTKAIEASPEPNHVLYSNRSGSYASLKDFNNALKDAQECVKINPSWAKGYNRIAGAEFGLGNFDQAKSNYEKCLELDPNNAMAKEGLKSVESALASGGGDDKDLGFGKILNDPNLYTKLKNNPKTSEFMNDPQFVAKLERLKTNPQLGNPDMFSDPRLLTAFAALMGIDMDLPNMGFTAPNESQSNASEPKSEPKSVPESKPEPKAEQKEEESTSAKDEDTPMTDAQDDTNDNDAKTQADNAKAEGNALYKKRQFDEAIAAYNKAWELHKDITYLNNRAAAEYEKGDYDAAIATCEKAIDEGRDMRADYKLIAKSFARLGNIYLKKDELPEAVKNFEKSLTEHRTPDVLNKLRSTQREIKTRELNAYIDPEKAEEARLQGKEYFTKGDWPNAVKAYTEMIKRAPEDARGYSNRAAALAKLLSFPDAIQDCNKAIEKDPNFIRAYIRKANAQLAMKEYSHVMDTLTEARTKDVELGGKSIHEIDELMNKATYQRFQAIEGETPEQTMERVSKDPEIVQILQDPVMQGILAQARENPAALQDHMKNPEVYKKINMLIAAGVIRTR
UniProt O13354: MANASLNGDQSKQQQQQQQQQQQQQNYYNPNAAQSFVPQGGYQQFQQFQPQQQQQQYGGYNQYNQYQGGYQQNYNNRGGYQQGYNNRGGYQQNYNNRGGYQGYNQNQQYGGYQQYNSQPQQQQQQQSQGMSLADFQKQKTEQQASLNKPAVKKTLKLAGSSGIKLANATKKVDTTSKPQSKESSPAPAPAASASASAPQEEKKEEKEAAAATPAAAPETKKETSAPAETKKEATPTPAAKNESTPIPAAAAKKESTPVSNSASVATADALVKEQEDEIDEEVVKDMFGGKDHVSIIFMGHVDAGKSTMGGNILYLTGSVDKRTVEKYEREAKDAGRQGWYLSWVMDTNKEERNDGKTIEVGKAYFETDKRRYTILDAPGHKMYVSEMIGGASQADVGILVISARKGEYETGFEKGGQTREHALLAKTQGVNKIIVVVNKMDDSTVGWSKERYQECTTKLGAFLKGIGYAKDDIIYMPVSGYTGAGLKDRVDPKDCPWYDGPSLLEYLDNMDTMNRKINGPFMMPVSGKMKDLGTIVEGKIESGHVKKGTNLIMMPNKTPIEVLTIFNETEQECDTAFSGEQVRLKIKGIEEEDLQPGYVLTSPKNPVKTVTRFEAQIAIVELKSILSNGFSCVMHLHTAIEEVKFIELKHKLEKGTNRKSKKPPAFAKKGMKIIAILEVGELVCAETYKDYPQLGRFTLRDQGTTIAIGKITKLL

Key:
[1] = target: Hsp90^E36A-GFP (C-terminally GFP-tagged E36A trap mutant of C. albicans Hsp90) (C. albicans) (UniProt P46598); test: affinity purification with mass spectrometry; single-step GFP-trap resin purification of Hsp90^E36A-GFP from C. albicans lysate; cells in YPD at 30°C untreated, with 8 μg/mL fluconazole or with 100 nM caspofungin; SAINTexpress against Eno1-GFP control, BFDR 2%
[2] = target: Sti1-TAP (C-terminally TAP-tagged C. albicans Sti1) (C. albicans); test: affinity purification with mass spectrometry; tandem affinity purification of TAP-tagged co-chaperone from C. albicans lysate (IgG magnetic beads, TEV cleavage, calmodulin beads); cells in YPD at 30°C; SAINTexpress against TAP-tagged Cas5 control, false discovery rate 2%

Row | binding [2] | Substance | binding [1]
1 |  | Cam1 (C. albicans), endogenous (from UniProt A0A1D8PKC3 1-412) | binds
2 | binds | Hsp90 (C. albicans), endogenous, untagged (from UniProt P46598 1-707) | 
3 |  | Sti1 (C. albicans), endogenous, untagged (from UniProt A0A1D8PN90 1-589) | no binding
4 |  | Sup35 (C. albicans), endogenous (from UniProt O13354 1-715) | binds
